Results deposited as PubChem BioAssay AID1053208 (Peter MacCallum Cancer Centre, 2014).
This is an unselected part of about 17,000 reagents. Over the whole deposit, 788 (4.7%) are marked active. 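Calls rest on z-score classes alone; an extra cut-off of viability at most 70% of control was not applied to them.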 Unmarked entries are inactive. No sequences are given here.

- Assay: 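Genes whose silencing cuts survival of bone tumour cells only with doxorubicin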 (primary screen)
- System: mouse osteosarcoma cells, early-passage culture from an engineered mouse model of fibroblastic bone tumour
- Reagents: siRNA pool against mouse genes, 40 nM
- Time to read-out: about 120 h (48 h before drug, then 72 h with drug)
- Treatment: doxorubicin 100 nM for 72 h, roughly 30-40% inhibitory dose
- Measurement: 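Viability read as ATP luminescence after 72 h of 100 nM doxorubicin or none, duplicate wells averaged, scaled to non-targeting siRNA, then expressed as robust z-scores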
- Reading the numbers: viability z-score with doxorubicin and doxorubicin viability vs non-targeting: higher = more viable cells under doxorubicin; viability z-score without drug: higher = more viable cells with knock-down alone; z-score of drug to no-drug ratio: higher = less drug sensitisation by knock-down
- Hit rule: 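a pool counts as active when its viability z-score with doxorubicin is -2 or below and its z-score without drug lies between -2 and 2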

The opening 2 records as a preview:
no.	gene symbol	combined z-score class	viability z-score with doxorubicin	viability z-score without drug	z-score of drug to no-drug ratio	doxorubicin viability vs non-targeting
1	S100a1	no change with or without drug	0.34	0.17	0.34	0.97
2	Hacd1	no change with or without drug	1.01	0.67	0.67	1.03

Main list, repeating the preview:
no.	gene symbol	combined z-score class	viability z-score with doxorubicin	viability z-score without drug	z-score of drug to no-drug ratio	doxorubicin viability vs non-targeting
1	S100a1	no change with or without drug	0.34	0.17	0.34	0.97
2	Hacd1	no change with or without drug	1.01	0.67	0.67	1.03
3	Fcgbpl1	no change with or without drug	1.69	1.18	1.01	1.09
4	Tas2r129	no change with or without drug	0.67	-0.67	1.35	1
5	Actl9	no change with or without drug	-0.67	-0.17	-0.45	0.88
6	Basp1	high cell count with doxorubicin only	2.36	-0.17	2.7	1.15
7	Or1l8	no change with or without drug	-1.46	0.51	-1.69	0.81
8	Nisch	no change with or without drug	-1.01	-0.84	-0.45	0.85
9	Cog8	no change with or without drug	-0.67	1.01	-1.24	0.88
10	Tomm34	no change with or without drug	-0.9	0.17	-0.9	0.86
11	Myo6	no change with or without drug	1.46	1.18	0.79	1.07
12	Sox9	no change with or without drug	-0.34	-1.52	0.9	0.91
13	Amdhd2	no change with or without drug	-0.45	-0.17	-0.22	0.9
14	Commd5	no change with or without drug	-0.79	0.17	-0.79	0.87
15	Evi2b	no change with or without drug	-1.35	0.51	-1.57	0.82
16	Hus1	no change with or without drug	-0.45	-0.17	-0.22	0.9
17	Col9a3	no change with or without drug	0.9	0.17	0.9	1.02
18	Cib2	no change with or without drug	1.8	0.17	1.91	1.1
19	Pth1r	no change with or without drug	0	-1.52	1.24	0.94
20	Nabp1	no change with or without drug	-0.79	-0.84	-0.11	0.87
